PubChem BioAssay AID504764 – Drosophila RNAi Screening Center, 2011

Purpose: 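Genome-wide screen for regulators of Notch-driven gene expression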 (primary screen)
Cells: Drosophila Kc167 cells
Knock-down reagent: long dsRNA against Drosophila genes
Timing: about 5 days (4 days dsRNA, then 24 h after transfection)
Conditions: transfection of constitutively active membrane-tethered Notch lacking the extracellular domain, read 24 h later
Detection: 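Firefly luciferase from an E(spl)m3 reporter with active Notch, plus control-promoter and uninduced reporter wells for normalisation; unnormalised counts, duplicate wells a and b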
Reading the numbers: induced reporter light, run 1, well a and induced reporter light, run 1, well b: higher = more light from the Notch target reporter with active Notch; control promoter light, run 1, well a and control promoter light, run 1, well b: higher = more light from the viral control promoter (cell number, transfection, viability); uninduced reporter light, run 1, well a: higher = more light from the Notch target reporter without active Notch
Call rule: 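Wells with low control signal or poorly matching duplicates excluded; duplicates averaged; per source plate, z beyond ±2 for induced/control log2 ratio or beyond ±1.8 for induced/uninduced marks a hit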
Calls: active = modifier hit (raised or lowered Notch signal); inactive = not a hit
The screen tested about 22,000 reagents; below is an unselected part of those that have a named target and a result. In the full data, 403 (1.9%) were called active. 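Unnormalised raw counts per well; ratio z-scores behind the hit calls and whether each hit raises or lowers signal are not deposited.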 Names joined by + are all predicted targets of the reagent. Not given: the amount of reagent.

| target gene | amplicon | induced reporter light, run 1, well a | induced reporter light, run 1, well b | control promoter light, run 1, well a | control promoter light, run 1, well b | uninduced reporter light, run 1, well a | activity call |
| --- | --- | --- | --- | --- | --- | --- | --- |
| CG31909 | DRSC22180 | – | – | – | – | – | inactive |
| Spn88Eb | DRSC16093 | 1.58e5 | 1.16e5 | 1.30e5 | 1.10e5 | 10855 | inactive |
| CG31269 | DRSC15744 | 2.50e5 | 2.61e5 | 2.57e5 | 2.80e5 | 19910 | inactive |
| CG7655 | DRSC16275 | 2.12e5 | 2.16e5 | 2.20e5 | 2.52e5 | 18015 | inactive |
| CG3880 | DRSC04428 | 1.81e5 | 1.56e5 | 1.33e5 | 1.79e5 | 12745 | inactive |
| Ilp8 | DRSC10076 | 2.36e5 | 1.66e5 | 2.46e5 | 1.82e5 | 10840 | inactive |
| Rab10 | DRSC20572 | 99685 | 1.05e5 | 1.22e5 | 1.49e5 | 13865 | inactive |
| mei-S332 | DRSC04704 | 1.10e5 | 1.30e5 | 74270 | 85705 | 7405 | inactive |
| CR12798 | DRSC21078 | 1.47e5 | 1.36e5 | 1.44e5 | 2.07e5 | 12355 | inactive |
| CG5070 | DRSC19932 | 60620 | 81045 | 89970 | 85825 | 9155 | inactive |
| CG30054 | DRSC05354 | 1.65e5 | 1.53e5 | 2.43e5 | 3.10e5 | 17100 | inactive |
| Pex3 | DRSC10731 | 89795 | 1.04e5 | 84075 | 87195 | 8390 | inactive |
| mei-217 + mei-218 | DRSC20349 | 1.08e5 | 80730 | 1.20e5 | 98110 | 15160 | inactive |
| dysf | DRSC14529 | 1.63e5 | 1.41e5 | 2.14e5 | 1.93e5 | 13415 | inactive |
| dysf | DRSC14895 | 1.15e5 | 1.07e5 | 1.52e5 | 1.46e5 | 9575 | inactive |
| dysf | DRSC14896 | 1.25e5 | 1.27e5 | 1.58e5 | 1.76e5 | 10582 | inactive |
| dysf | DRSC14897 | 11678 | 11290 | 9555 | 11482 | 3045 | inactive |
| Six4 | DRSC11881 | 48895 | 42690 | 45310 | 43700 | 2688 | inactive |
| CG14246 | DRSC14741 | 1.38e5 | 1.53e5 | 2.24e5 | 2.54e5 | 13430 | inactive |
| ea | DRSC16939 | 2.12e5 | 1.93e5 | 1.61e5 | 2.05e5 | 15295 | inactive |
| CG15553 | DRSC15091 | 1.06e5 | 1.36e5 | 1.45e5 | 1.55e5 | 10395 | inactive |
| Or67a | DRSC11240 | 1.48e5 | 1.37e5 | 1.63e5 | 1.92e5 | 7785 | inactive |
| Kif19A | DRSC16576 | 1.73e5 | 1.78e5 | 2.20e5 | 1.84e5 | 11470 | inactive |
| Plzf | DRSC02994 | 1.67e5 | 2.28e5 | 1.42e5 | 1.40e5 | 15125 | inactive |
| nAChRalpha1 | DRSC13664 | 31260 | 29775 | 25945 | 28360 | 6345 | inactive |
| nAChRalpha1 | DRSC13670 | 17400 | 18365 | 20410 | 22020 | 3910 | inactive |
| nAChRalpha1 | DRSC13672 | 2.11e5 | 2.36e5 | 2.01e5 | 2.03e5 | 20385 | inactive |
| nAChRalpha1 | DRSC17008 | 73340 | 71185 | 87340 | 95940 | 6605 | inactive |
| Cda4 | DRSC20623 | 78085 | 62170 | 90170 | 1.34e5 | 9605 | inactive |
| Cda4 | DRSC20641 | 79715 | 98220 | 82965 | 1.04e5 | 10130 | inactive |
| Cda4 | DRSC20642 | 83845 | 1.02e5 | 1.13e5 | 1.28e5 | 10305 | inactive |
| CG11550 | DRSC14326 | 1.21e5 | 1.17e5 | 2.03e5 | 2.00e5 | 8205 | inactive |
| Dek | DRSC07418 | 78270 | 82760 | 1.17e5 | 1.37e5 | 6685 | inactive |
| CG12470 | DRSC18620 | 98945 | 88260 | 1.81e5 | 1.67e5 | 6960 | inactive |
| PGRP-SD | DRSC10856 | 2.00e5 | 1.79e5 | 1.99e5 | 1.69e5 | 7675 | inactive |
| CG10365 | DRSC14234 | 2.28e5 | 1.98e5 | 2.46e5 | 2.02e5 | 17840 | inactive |
| Cad87A | DRSC16161 | 1.04e5 | 1.19e5 | 88810 | 75925 | 8625 | inactive |
| CG7139 | DRSC11611 | 1.36e5 | 1.34e5 | 68785 | 86735 | 9980 | inactive |
| Calr | DRSC16614 | 1.06e5 | 1.20e5 | 91920 | 77045 | 5805 | inactive |
| spir | DRSC03619 | 46905 | 39505 | 55070 | 41010 | 2555 | inactive |
| gd | DRSC20336 | 1.28e5 | 1.30e5 | 2.36e5 | 2.06e5 | 8950 | inactive |
| Hsp83 | DRSC08664 | 63645 | 78165 | 1.31e5 | 1.16e5 | 5805 | inactive |
| Hs6st | DRSC14348 | 1.80e5 | 1.46e5 | 1.65e5 | 1.56e5 | 12395 | inactive |
| Hs6st | DRSC15182 | 2.08e5 | 2.41e5 | 2.27e5 | 2.41e5 | 15460 | inactive |
| Hs6st | DRSC15581 | 1.98e5 | 1.91e5 | 2.08e5 | 1.93e5 | 14285 | inactive |
| RpL37-1 | DRSC20149 | 1.01e5 | 93515 | 97495 | 1.24e5 | 13165 | inactive |
| RpL37-1 | DRSC21646 | – | – | – | – | – | inactive |
| CG7379 | DRSC16237 | 2.10e5 | 2.04e5 | 2.97e5 | 2.87e5 | 17940 | inactive |
| CG5883 | DRSC10552 | 1.56e5 | 1.63e5 | 1.94e5 | 2.32e5 | 7435 | inactive |
| PIG-T | DRSC17774 | 1.71e5 | 1.69e5 | 2.56e5 | 3.10e5 | 14245 | inactive |
